Differences between knockout arms are mostly noise.
Tested on: BT-20
Assay: relative cell number vs DMSO control (72 h) (% of DMSO); higher = less growth inhibition (more cells)
Protocol: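 QMAP-Seq: a pool of 5 breast cancer cell lines (ZR-75-1, SKBR3, HCC-38, MDA-MB-231, BT-20), each carrying 12 doxycycline-inducible Cas9 sgRNA perturbations (11 knockouts plus non-targeting sgNT), was treated with compounds for 72 h at four 10-fold doses (10 nM-10 uM or 1 nM-1 uM range). Barcodes were amplified and sequenced, and cell number was interpolated from 293T spike-in standard curves. The result is expressed as % of the median of DMSO wells. Two biological replicates.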

CN1CCN(CCCN2c3ccccc3Sc3ccc(C(F)(F)F)cc32)CC1 [Trifluoperazine]
Conditions | relative cell number
sgRNA knockout: sgATF3, 10 nM | 89.8
sgRNA knockout: sgATF3, 100 nM | 87.3
sgRNA knockout: sgATF3, 1000 nM | 85.4
sgRNA knockout: sgATF3, 10000 nM | 75.7
sgRNA knockout: sgATF4, 10 nM | 93.3
sgRNA knockout: sgATF4, 100 nM | 101
sgRNA knockout: sgATF4, 1000 nM | 72.6
sgRNA knockout: sgATF4, 10000 nM | 77.8
sgRNA knockout: sgATF6, 10 nM | 76.1
sgRNA knockout: sgATF6, 100 nM | 106
sgRNA knockout: sgATF6, 1000 nM | 108
sgRNA knockout: sgATF6, 10000 nM | 85.8
sgRNA knockout: sgATG7, 10 nM | 93.7
sgRNA knockout: sgATG7, 100 nM | 106
sgRNA knockout: sgATG7, 1000 nM | 107
sgRNA knockout: sgATG7, 10000 nM | 75.8
sgRNA knockout: sgERN1, 10 nM | 86.7
sgRNA knockout: sgERN1, 100 nM | 91.6
sgRNA knockout: sgERN1, 1000 nM | 94.6
sgRNA knockout: sgERN1, 10000 nM | 68.3
sgRNA knockout: sgHSF1, 10 nM | 93.9
sgRNA knockout: sgHSF1, 100 nM | 93.7
sgRNA knockout: sgHSF1, 1000 nM | 89.5
sgRNA knockout: sgHSF1, 10000 nM | 76.2
sgRNA knockout: sgHSF2, 10 nM | 88.9
sgRNA knockout: sgHSF2, 100 nM | 78.7
sgRNA knockout: sgHSF2, 1000 nM | 80.6
sgRNA knockout: sgHSF2, 10000 nM | 69.5
sgRNA knockout: sgKEAP1, 10 nM | 88.6
sgRNA knockout: sgKEAP1, 100 nM | 93.6
sgRNA knockout: sgKEAP1, 1000 nM | 97.2
sgRNA knockout: sgKEAP1, 10000 nM | 81.2
sgRNA knockout: sgNFE2L2, 10 nM | 94.7
sgRNA knockout: sgNFE2L2, 100 nM | 100
sgRNA knockout: sgNFE2L2, 1000 nM | 84.6
sgRNA knockout: sgNFE2L2, 10000 nM | 67.5
sgRNA knockout: sgSLC35F2, 10 nM | 110
sgRNA knockout: sgSLC35F2, 100 nM | 97
sgRNA knockout: sgSLC35F2, 1000 nM | 91.5
sgRNA knockout: sgSLC35F2, 10000 nM | 88.2
sgRNA knockout: sgXBP1, 10 nM | 99.1
sgRNA knockout: sgXBP1, 100 nM | 107
sgRNA knockout: sgXBP1, 1000 nM | 112
sgRNA knockout: sgXBP1, 10000 nM | 83.1

CN1CCc2c(c3ccccc3n2Cc2ccc(C(=O)NO)cc2)C1 [TubastatinA]
Conditions | relative cell number
sgRNA knockout: sgATF3, 10 nM | 92
sgRNA knockout: sgATF3, 100 nM | 84.6
sgRNA knockout: sgATF3, 1000 nM | 113
sgRNA knockout: sgATF3, 10000 nM | 75.6
sgRNA knockout: sgATF4, 10 nM | 89.9
sgRNA knockout: sgATF4, 100 nM | 98.8
sgRNA knockout: sgATF4, 1000 nM | 111
sgRNA knockout: sgATF4, 10000 nM | 83.9
sgRNA knockout: sgATF6, 10 nM | 101
sgRNA knockout: sgATF6, 100 nM | 74.8
sgRNA knockout: sgATF6, 1000 nM | 106
sgRNA knockout: sgATF6, 10000 nM | 79.06
sgRNA knockout: sgATG7, 10 nM | 95.5
sgRNA knockout: sgATG7, 100 nM | 87.5
sgRNA knockout: sgATG7, 1000 nM | 104.3
sgRNA knockout: sgATG7, 10000 nM | 82.8
sgRNA knockout: sgERN1, 10 nM | 98.9
sgRNA knockout: sgERN1, 100 nM | 93.1
sgRNA knockout: sgERN1, 1000 nM | 96.58
sgRNA knockout: sgERN1, 10000 nM | 73.1
sgRNA knockout: sgHSF1, 10 nM | 88.6
sgRNA knockout: sgHSF1, 100 nM | 88.45
sgRNA knockout: sgHSF1, 1000 nM | 98.6
sgRNA knockout: sgHSF1, 10000 nM | 86.6
sgRNA knockout: sgHSF2, 10 nM | 71.3
sgRNA knockout: sgHSF2, 100 nM | 76.5
sgRNA knockout: sgHSF2, 1000 nM | 102
sgRNA knockout: sgHSF2, 10000 nM | 88
sgRNA knockout: sgKEAP1, 10 nM | 87.9
sgRNA knockout: sgKEAP1, 100 nM | 84.7
sgRNA knockout: sgKEAP1, 1000 nM | 94.7
sgRNA knockout: sgKEAP1, 10000 nM | 80.7
sgRNA knockout: sgNFE2L2, 10 nM | 83.4
sgRNA knockout: sgNFE2L2, 100 nM | 66.7
sgRNA knockout: sgNFE2L2, 1000 nM | 82.2
sgRNA knockout: sgNFE2L2, 10000 nM | 83.4
sgRNA knockout: sgSLC35F2, 10 nM | 77
sgRNA knockout: sgSLC35F2, 100 nM | 84.7
sgRNA knockout: sgSLC35F2, 1000 nM | 96.7
sgRNA knockout: sgSLC35F2, 10000 nM | 72.6
sgRNA knockout: sgXBP1, 10 nM | 80.8
sgRNA knockout: sgXBP1, 100 nM | 85.8
sgRNA knockout: sgXBP1, 1000 nM | 102
sgRNA knockout: sgXBP1, 10000 nM | 79.2

CCC[C@H](NC(=O)/C(C#N)=C/c1cccc(Br)n1)c1ccccc1 [WP1130]
Conditions | relative cell number
sgRNA knockout: sgATF3, 10 nM | 92.8
sgRNA knockout: sgATF3, 100 nM | 110
sgRNA knockout: sgATF3, 1000 nM | 95.6
sgRNA knockout: sgATF3, 10000 nM | 7.59
sgRNA knockout: sgATF4, 10 nM | 103
sgRNA knockout: sgATF4, 100 nM | 92.8
sgRNA knockout: sgATF4, 1000 nM | 92.5
sgRNA knockout: sgATF4, 10000 nM | 8.71
sgRNA knockout: sgATF6, 10 nM | 95.4
sgRNA knockout: sgATF6, 100 nM | 81.4
sgRNA knockout: sgATF6, 1000 nM | 109
sgRNA knockout: sgATF6, 10000 nM | 8
sgRNA knockout: sgATG7, 10 nM | 101
sgRNA knockout: sgATG7, 100 nM | 95.2
sgRNA knockout: sgATG7, 1000 nM | 95.6
sgRNA knockout: sgATG7, 10000 nM | 8.2
sgRNA knockout: sgERN1, 10 nM | 96.2
sgRNA knockout: sgERN1, 100 nM | 114
sgRNA knockout: sgERN1, 1000 nM | 96.1
sgRNA knockout: sgERN1, 10000 nM | 8.01
sgRNA knockout: sgHSF1, 10 nM | 104
sgRNA knockout: sgHSF1, 100 nM | 89.2
sgRNA knockout: sgHSF1, 1000 nM | 109
sgRNA knockout: sgHSF1, 10000 nM | 9.11
sgRNA knockout: sgHSF2, 10 nM | 105
sgRNA knockout: sgHSF2, 100 nM | 95.6
sgRNA knockout: sgHSF2, 1000 nM | 114
sgRNA knockout: sgHSF2, 10000 nM | 10.1
sgRNA knockout: sgKEAP1, 10 nM | 99.1
sgRNA knockout: sgKEAP1, 100 nM | 94.5
sgRNA knockout: sgKEAP1, 1000 nM | 101
sgRNA knockout: sgKEAP1, 10000 nM | 8.12
sgRNA knockout: sgNFE2L2, 10 nM | 92.2
sgRNA knockout: sgNFE2L2, 100 nM | 98.7
sgRNA knockout: sgNFE2L2, 1000 nM | 109
sgRNA knockout: sgNFE2L2, 10000 nM | 12.6
sgRNA knockout: sgSLC35F2, 10 nM | 93.42
sgRNA knockout: sgSLC35F2, 100 nM | 90.1
sgRNA knockout: sgSLC35F2, 1000 nM | 93.6
sgRNA knockout: sgSLC35F2, 10000 nM | 9.46
sgRNA knockout: sgXBP1, 10 nM | 114
sgRNA knockout: sgXBP1, 100 nM | 110
sgRNA knockout: sgXBP1, 1000 nM | 108
sgRNA knockout: sgXBP1, 10000 nM | 9.3

Source: the supplement of paper PMC7661543
